Assay results from patent US20100143897A1, “Materials and Methods for Assaying for Glyoxylate” (University of South Florida, priority 2005, published 2010).

Tested on: peptidylglycine α-amidating monooxygenase (PAM)
Test: PAM treatment of hippurate: benzamide by HPLC, glyoxylate by malate synthase/malate dehydrogenase/MTS/PMS system
Assay type: biochemical
Experimental: Spectrophotometric enzyme-linked assays for glyoxylate were initiated by the addition of malate synthase and malate dehydrogenase. […] The absorbance at 490 nm was measured after one hour incubation at 37° C. in the dark. The small amount of MTS reduced for the zero glyoxylate control was subtracted from that obtained in the presence of glyoxylate. Hippurate (N-benzoylglycine, C6H5—CO—NH—CH2—COO^−) is a PAM substrate that is oxidatively converted to benzamide and glyoxylate. […] At 10 min intervals over a period of 110 minutes, 45 μl aliquots were removed and added to 10 μl of 6% (v/v) trifluoroacetic acid to terminate the reaction. Percent conversion of hippurate to benzamide was determined at each time interval by reverse-phase HPLC. […] Following ascorbate removal the addition of 100 ul enzyme couple and PMS/MTS brought the assay to a final volume of 1 ml which contained 100 mM TEA-HCl pH 7.8, 10 mM MgCl2, 400 μM acetyl-CoA, 500 μM NAD^+, 6 U/ml malate synthase, 6 U/ml malate dehydrogenase, and 12 units ascorbate oxidase. […] A control for this experiment was performed at each time point, and contained no hippurate.

O=C(O)CNC(=O)c1ccccc1 [Hippurate, N-benzoylglycine]
[Glyoxylate]/[Benzamide] (Time 40): 1.2 | [Glyoxylate]/[Benzamide] (Time 50): 0.96 | [Glyoxylate]/[Benzamide] (Time 60): 0.89 | [Glyoxylate]/[Benzamide] (Time 70): 0.83 | [Glyoxylate]/[Benzamide] (Time 80): 0.79 | [Glyoxylate]/[Benzamide] (Time 90): 1.2 | [Glyoxylate]/[Benzamide] (Time 100): 1.1 | [Glyoxylate]/[Benzamide] (Time 110): 1.0
